1 sequence from paper PMC10147607, “MSI2 promotes translation of multiple IRES-containing oncogenes and virus to induce self-renewal of tumor initiating stem-like cells” (Cell Death Discovery, 2023) can be followed below.

Protein sequences, listed by entry. Tags and fused reporters are not part of them. Lines headed by an entry give the natural chain unless they say otherwise; changes in a name come on top.
UniProt Q96DH6: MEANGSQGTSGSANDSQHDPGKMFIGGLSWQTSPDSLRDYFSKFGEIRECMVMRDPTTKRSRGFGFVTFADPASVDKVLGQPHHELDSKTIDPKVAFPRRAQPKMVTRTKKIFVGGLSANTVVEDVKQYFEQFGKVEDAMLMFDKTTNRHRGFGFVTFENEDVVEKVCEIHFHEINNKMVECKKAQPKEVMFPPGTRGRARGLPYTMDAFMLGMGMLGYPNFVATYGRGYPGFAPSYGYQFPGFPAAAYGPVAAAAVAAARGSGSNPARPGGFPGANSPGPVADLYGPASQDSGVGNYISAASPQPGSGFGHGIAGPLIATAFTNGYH

Construct, isoform or probe ends are uncertain for at least one entry. At least one verdict rests on a figure or table, not on a statement of the authors.

In this data set the target is MSI2 (human) (UniProt Q96DH6). Description: fluorescence polarization. Particulars: recombinant protein; protein details: His6; label: FITC. For orientation: Fluorescence polarisation rises when a labelled molecule tumbles more slowly, as on binding a larger partner.

For “AAUUCCAGCGAGAG [FITC MYC IRES MSI2-ligand RNA wild type]”, the binding result is recorded as “binds”.
